Measured values taken from PubChem BioAssay AID651640 (Broad Institute, 2012).
The campaign covered roughly 350,000 compounds. About 6,000 (1.7%) were called active. This list was built around the results that the source calls inconclusive (neither active nor inactive); the mix of calls is not that of the screen. No stated cut-off is given here; in the data, active means CPE inhibition above about 20% (passing the limit was not always enough); inconclusive means no clear call, values can overlap the other calls; tested in BHK-21 cells.

Test: protection of cells from dengue 2 killing – plate reader, single concentration, primary screen (AID 651640);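 further: 0% = median of neutral control wells and 100% = median of positive control wells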
Conditions: DENV2-infected cells, cytopathic effect rescue, at 9.99 µM, hits give high values

SMILES | CPE inhibition
CN(C)C(=O)c1ccc(-c2ccccc2[C@@H]2[C@H](C#N)N(C(=O)C3CCCC3)[C@H]2CO)cc1 | inconclusive: 23.2%
Nc1nccnc1C(=O)OCC(=O)c1ccc[nH]1 | active: 33.1%
Cc1ccc(S(=O)(=O)N(C)C[C@H]2Oc3ccc(NS(=O)(=O)c4ccc(Cl)cc4)cc3CC(=O)N([C@@H](C)CO)C[C@H]2C)cc1 | active: 26.6%
COc1cccc(CN2CCC3(CC2)CN(C(=O)C2CC2)[C@@H](CO)c2[nH]c4cc(OC)ccc4c23)c1 | inconclusive: 41.8%
O=C(Nc1ccccc1)N1C[C@@H]2[C@H](c3ccccc31)[C@@H](CO)N2CC1CCCC1 | inconclusive: 28%
O=C(Cc1ccc(S(=O)(=O)N2CCOCC2)s1)Nc1ccccc1N1CCCC1 | inconclusive: 37.1%
CO[C@H]1CN(C)C(=O)c2cc(NS(C)(=O)=O)ccc2OC[C@@H](C)N(CC2CCCCC2)C[C@@H]1C | inactive: 3.34%
CC(C)NC(=O)NCC[C@@H]1CC[C@H](NS(=O)(=O)c2ccc(-c3ccccc3)cc2)[C@H](CO)O1 | inactive: 9.09%
O=C(C[C@@H]1CC[C@H]2[C@@H](COC[C@H](O)CN2C(=O)Nc2cc(Cl)cc(Cl)c2)O1)NCC1CCCCC1 | inactive: -14.3%
CN(CCn1ccnc1)Cc1cn(-c2ccccc2)nc1-c1ccc2c(c1)OCO2 | inactive: 3.67%
C[C@@H]1CN([C@H](C)CO)C(=O)Cc2cc(NS(C)(=O)=O)ccc2O[C@H]1CN(C)C(=O)Nc1ccc(C(F)(F)F)cc1 | inactive: -5.35%
CCOC(=O)CSc1ncnc2c1cnn2-c1ccc(C)cc1C | inconclusive: 20.8%
CCCc1ccc(S(=O)(=O)NCc2nnc(SC)n2C)cc1 | inconclusive: 22.5%
Cc1ccccc1-c1cnc2c(c1)C(=O)N([C@@H](C)CO)C[C@H](C)[C@@H](CN(C)CC1CCOCC1)O2 | inconclusive: 20.5%
Cc1ccc(NC(=O)COC(=O)Cc2csc(-c3ccc(Cl)cc3)n2)cc1C | inconclusive: 34%
C[C@H](CO)N1C[C@H](C)[C@H](CN(C)Cc2ccncc2)Oc2cc(C#C[C@@H](C)O)ccc2S1(=O)=O | inactive: 0.663%
CCOC(=O)C1CCCN(C(=O)CSc2nnnn2C)C1 (configuration not stated) | inconclusive: 40.5%
COc1cccc(NC(=O)CN2C(=O)NC3(CCCCCC3)C2=O)c1 | inconclusive: 37%
CCc1ccc(CN(C(=O)COc2c(C)cccc2C)C2CCS(=O)(=O)C2)cc1 (configuration not stated) | inconclusive: 41.7%
COc1ccc(S(=O)(=O)N(C)C[C@H]2OCCCC[C@@H](C)Oc3ccc(NS(=O)(=O)c4c(C)noc4C)cc3C(=O)N([C@@H](C)CO)C[C@@H]2C)cc1 | inactive: 10.3%
COc1ccc(OCCOC(=O)CN2C(=O)NC3(CCCC3)C2=O)cc1 | inconclusive: 29.5%
CC(C)(C)c1ccc(CC(=O)N2CCC2(C)C(=O)NCc2ccc3c(c2)OCO3)cc1 (configuration not stated) | inconclusive: 46.2%
OC[C@H]1[C@@H]2c3ccccc3NC[C@@H]2N1CC1CCCCC1 | inconclusive: 25.4%
c1ccc(Sc2ncnc3ccccc23)cc1 | inconclusive: 27.9%

SMILES | CPE inhibition
CO[C@H](CN(C)S(=O)(=O)c1cccc(Cl)c1)[C@@H](C)CN(C(=O)Nc1ccccc1F)[C@H](C)CO | inactive: -1.97%
COc1cccc(CN(C)S(=O)(=O)c2cccs2)c1 | active: 24.8%
NS(=O)(=O)c1ccc(NC(=O)CN2CCCC2)cc1 | inconclusive: 43.8%
O=C(CSC1=NS(=O)(=O)c2cc(Cl)ccc2N1)NCCc1ccccc1 | inconclusive: 34.7%
COc1c2ccoc2c(OC[C@@H](O)C(C)(C)O)c2oc(=O)ccc12 | inconclusive: 65.9%
COc1ccc(CN(C)C[C@@H]2Oc3ccc(NC(=O)Cc4ccccc4)cc3CC(=O)N([C@H](C)CO)C[C@@H]2C)cc1 | inactive: -0.397%
CC=Cc1ccc2n(c1=O)C[C@@H]1[C@@H](CO)[C@H](C(=O)N[C@H](C)c3ccccc3)[C@H]2N1Cc1ccccc1 (mixture of isomers) | inactive: -7.07%
O=C(NNC(=O)c1nc2ccccc2[nH]1)OCc1ccccc1 | inconclusive: 53.3%
C[C@H]1CN([C@@H](C)CO)C(=O)c2cccc(NS(=O)(=O)c3ccc(Cl)cc3)c2O[C@H]1CN(C)S(=O)(=O)c1ccc(F)cc1 | inactive: -11.1%
Cc1ccc(S(=O)(=O)Nc2ccc3c(c2)C(=O)N([C@H](C)CO)C[C@@H](C)[C@@H](CN(C)CC2CCCCC2)O3)cc1 | inconclusive: 21.7%
CCn1cc([N+](=O)[O-])c(C(=O)Nc2ccn(Cc3ccccc3)n2)n1 | inconclusive: 25.6%
Nc1ccn([C@@H]2O[C@H](CO)[C@@H](O)[C@@H]2O)c(=O)n1 | inconclusive: 21.1%
C[C@H](CO)N1C[C@H](C)[C@H](CN(C)Cc2ccc(C(=O)Nc3ccccc3N)cc2)Oc2c(NC(=O)Nc3ccc(F)cc3)cccc2C1=O | active: 36.1%
CCNC(=O)C1(C)CCN(C(=O)c2ccc3snnc3c2)C1 (configuration not stated) | inconclusive: 32%
C[C@H](CO)N1C[C@H](C)[C@H](CN(C)S(C)(=O)=O)Oc2ccc(NC(=O)C3CCCCC3)cc2C1=O | inactive: -4.95%
CCc1cc(Cn2nc(-c3ccccc3C)cc2C(=O)O)on1 | active: 24.7%
COc1ccc(NC(=O)c2cc(C3CCCCN3C(=O)c3cc(F)ccc3C)on2)c(C)c1 (configuration not stated) | inactive: 2.66%
Cc1cc(C)c(S(=O)(=O)N2CCCOC2CNC(=O)C(=O)NCCCn2ccnc2)c(C)c1 (configuration not stated) | inactive: 1.5%
O=C(NNC(=O)c1cccc([N+](=O)[O-])c1)c1ccncc1 | inconclusive: 35.7%
O=C(NCc1ccco1)C(=O)NN=Cc1ccccc1O | inconclusive: 23.2%
COc1ccc(NC(=O)CSc2nc3nc(C)cc(C)n3n2)cc1 | inconclusive: 24.1%
CCC(=O)N1[C@H](CO)[C@@H](c2ccc(-c3ccccc3)cc2)[C@H]1CNC(=O)COC | inconclusive: 27.5%
CNC(=O)OCc1nc(SC2CCCCO2)n(C)c1COC(=O)NC (configuration not stated) | inconclusive: 34.9%

Some values from the results shown:
Value for C[C@H](CO)N1C[C@H](C)[C@H](CN(C)Cc2ccncc2)Oc2cc(C#C[C@@H](C)O)ccc2S1(=O)=O under CPE inhibition: inactive: 0.663%
Value for CC(C)NC(=O)NCC[C@@H]1CC[C@H](NS(=O)(=O)c2ccc(-c3ccccc3)cc2)[C@H](CO)O1 under CPE inhibition: inactive: 9.09%
